{"source": "paper PMC11855827", "about": "“High-Throughput Screening of Five Compound Libraries for Anthelmintic Activity and Toxicity Leads to the Discovery of Two Flavonoid Compounds” (International Journal of Molecular Sciences, 2025)", "system": "C. elegans", "experiment": "microbe, parasite or virus in culture", "details": "Caenorhabditis elegans", "note": "Where two headings read alike, the source gives them in different places.", "data": [{"smiles": "CN[C@@H]1C[C@H]2O[C@@](C)([C@@H]1OC)n1c3ccccc3c3c4c(c5c6ccccc6n2c5c31)C(=O)NC4", "note": "[Staurosporine]", "values": [{"measurement": "inhibition at 110 µM", "setting": "0 h, read-out: Percentage of motility inhibition 0 h", "value": 15, "unit": "%"}, {"measurement": "inhibition at 110 µM", "setting": "24 h, read-out: Percentage of motility inhibition 24 h", "value": 33, "unit": "%"}]}, {"smiles": "NCCCC(=O)O", "note": "[γ-Aminobutyric acid]", "values": [{"measurement": "inhibition at 110 µM", "setting": "0 h, read-out: Percentage of motility inhibition 0 h, Table S2, C. elegans SS assay, 110 μM, 0 h, averages of 4 data points", "value": 13, "unit": "%"}, {"measurement": "inhibition at 110 µM", "setting": "24 h, read-out: Percentage of motility inhibition 24 h, Table S2, C. elegans SS assay, 110 μM, 24 h, averages of 4 data points", "value": 21, "unit": "%"}]}]}
